This is an account of results in the supplement of paper PMC11237882.

The list shows a part of the results. Values are worked out from sequencing counts and are noisy.

The target in the assay is T1, Homer1 EVH1 domain.
T1 chain: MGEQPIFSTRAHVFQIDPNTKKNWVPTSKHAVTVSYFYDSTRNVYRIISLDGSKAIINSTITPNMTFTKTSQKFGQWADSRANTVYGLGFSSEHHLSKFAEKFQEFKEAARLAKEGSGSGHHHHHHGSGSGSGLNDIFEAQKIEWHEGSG
The assay can be described thus: enrichment score (AUC of log2 frequency ratio across FACS sorting rounds) (log2 AUC); higher = stronger enrichment for Homer1 EVH1 binding.
VLPIQKYLEPVYFYIYTLFGLQAIYVTALYITSWLQ: the enrichment score turned out to be 4.19.
In the case of NPSCPMIPLYRNLPDHSAATKPSLFLFLVSLLHIFF, the enrichment score is -4.11.
As to PSVFSFLNPLSPDIWMYVLLAYLGVSCVLFVIARFS, the enrichment score was determined as 1.78.
On to SPTDPVVPAVPIGPPPAGFRDILLREGTEGFARTVR, for which the enrichment score came out at 6.39.
Consider MLSRSRCVSRAFSRSLSAFQKGNCPLGRRSLPGVSF, for which the enrichment score is -0.871.
YIGAGICAGLALALIFGALIFKWYSHSKEKIQNLSL: the enrichment score worked out at 1.34.
For the molecule WFWILLGLAYFASVLTTIGNWLRVVSRRTRAEMGGL, the enrichment score was found to be 0.744.
As to TVLFTLTSVVVLVITTDWISWDKLNRGFLPSDEVSR, the enrichment score is -0.0837.
Take EWAYGYRGKDCRANVYLLPTGEIVYFIASVVVLFNY: the enrichment score was -2.84.
As for SMDYLGASESEIVYLALLIPYLHFLIFLFILRCLEM, the figure is 0.114.
In the case of LPLLLKDELLMPSVVTTMAFFIACVTSFSIFEKTSE, the enrichment score was 3.11.
With NIEITPTPAQPAPALSPALGPTLSVLMAMLAGWSVL, the enrichment score is 4.56.
